Results on 38 targets are retold here after the supplement of paper PMC10849652.

Chains of the proteins cited; added tags and fusions are not shown. Lines headed by an entry give the natural chain unless they say otherwise; changes in a name come on top.
UniProt Q9UBU8, whole entry, looked up: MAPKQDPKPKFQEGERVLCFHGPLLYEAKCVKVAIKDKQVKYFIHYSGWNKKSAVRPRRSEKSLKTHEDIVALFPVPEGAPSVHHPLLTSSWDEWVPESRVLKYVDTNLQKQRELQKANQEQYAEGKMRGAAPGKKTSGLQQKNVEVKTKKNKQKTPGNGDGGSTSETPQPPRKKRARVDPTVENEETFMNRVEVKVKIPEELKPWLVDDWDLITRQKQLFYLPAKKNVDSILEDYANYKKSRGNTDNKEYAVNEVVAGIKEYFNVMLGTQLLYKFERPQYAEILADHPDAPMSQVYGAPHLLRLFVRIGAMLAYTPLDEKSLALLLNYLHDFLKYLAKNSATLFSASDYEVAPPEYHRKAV
UniProt O95563: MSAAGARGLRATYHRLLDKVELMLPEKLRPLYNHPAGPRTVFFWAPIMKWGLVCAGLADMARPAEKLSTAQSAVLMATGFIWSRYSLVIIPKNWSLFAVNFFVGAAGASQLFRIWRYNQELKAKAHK
UniProt Q9NXC5: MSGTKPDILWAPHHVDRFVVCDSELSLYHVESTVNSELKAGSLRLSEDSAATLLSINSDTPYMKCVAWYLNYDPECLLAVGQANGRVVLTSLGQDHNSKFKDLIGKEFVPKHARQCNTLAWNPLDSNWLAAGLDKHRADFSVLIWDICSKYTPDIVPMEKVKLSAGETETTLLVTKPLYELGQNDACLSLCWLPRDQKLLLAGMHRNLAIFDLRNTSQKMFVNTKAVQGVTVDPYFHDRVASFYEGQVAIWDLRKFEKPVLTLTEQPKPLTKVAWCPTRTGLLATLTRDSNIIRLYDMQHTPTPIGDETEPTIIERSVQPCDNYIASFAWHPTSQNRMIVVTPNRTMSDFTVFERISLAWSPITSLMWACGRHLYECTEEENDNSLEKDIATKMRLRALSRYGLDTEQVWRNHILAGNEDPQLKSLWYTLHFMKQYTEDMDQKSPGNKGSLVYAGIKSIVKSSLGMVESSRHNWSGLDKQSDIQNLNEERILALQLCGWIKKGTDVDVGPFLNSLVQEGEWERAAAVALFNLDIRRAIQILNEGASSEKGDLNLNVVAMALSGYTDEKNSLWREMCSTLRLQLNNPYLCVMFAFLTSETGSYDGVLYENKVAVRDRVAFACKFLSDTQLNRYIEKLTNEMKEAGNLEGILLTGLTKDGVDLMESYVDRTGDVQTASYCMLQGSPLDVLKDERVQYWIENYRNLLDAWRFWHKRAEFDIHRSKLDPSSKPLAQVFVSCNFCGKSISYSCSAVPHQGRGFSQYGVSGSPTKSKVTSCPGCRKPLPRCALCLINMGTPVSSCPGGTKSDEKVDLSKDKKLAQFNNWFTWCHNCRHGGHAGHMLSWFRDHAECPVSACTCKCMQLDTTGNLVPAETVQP
UniProt Q9H000: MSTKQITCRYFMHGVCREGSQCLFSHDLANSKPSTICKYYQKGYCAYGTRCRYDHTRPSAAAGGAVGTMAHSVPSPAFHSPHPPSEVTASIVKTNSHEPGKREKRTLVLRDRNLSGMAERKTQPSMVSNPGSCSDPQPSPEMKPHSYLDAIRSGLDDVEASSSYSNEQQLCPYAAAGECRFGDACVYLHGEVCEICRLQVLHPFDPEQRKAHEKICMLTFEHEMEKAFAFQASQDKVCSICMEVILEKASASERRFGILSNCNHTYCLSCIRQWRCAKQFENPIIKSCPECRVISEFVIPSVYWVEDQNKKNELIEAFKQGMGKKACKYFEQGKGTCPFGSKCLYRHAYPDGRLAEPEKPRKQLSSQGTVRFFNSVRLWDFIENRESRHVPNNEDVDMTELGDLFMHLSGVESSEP
UniProt P22033: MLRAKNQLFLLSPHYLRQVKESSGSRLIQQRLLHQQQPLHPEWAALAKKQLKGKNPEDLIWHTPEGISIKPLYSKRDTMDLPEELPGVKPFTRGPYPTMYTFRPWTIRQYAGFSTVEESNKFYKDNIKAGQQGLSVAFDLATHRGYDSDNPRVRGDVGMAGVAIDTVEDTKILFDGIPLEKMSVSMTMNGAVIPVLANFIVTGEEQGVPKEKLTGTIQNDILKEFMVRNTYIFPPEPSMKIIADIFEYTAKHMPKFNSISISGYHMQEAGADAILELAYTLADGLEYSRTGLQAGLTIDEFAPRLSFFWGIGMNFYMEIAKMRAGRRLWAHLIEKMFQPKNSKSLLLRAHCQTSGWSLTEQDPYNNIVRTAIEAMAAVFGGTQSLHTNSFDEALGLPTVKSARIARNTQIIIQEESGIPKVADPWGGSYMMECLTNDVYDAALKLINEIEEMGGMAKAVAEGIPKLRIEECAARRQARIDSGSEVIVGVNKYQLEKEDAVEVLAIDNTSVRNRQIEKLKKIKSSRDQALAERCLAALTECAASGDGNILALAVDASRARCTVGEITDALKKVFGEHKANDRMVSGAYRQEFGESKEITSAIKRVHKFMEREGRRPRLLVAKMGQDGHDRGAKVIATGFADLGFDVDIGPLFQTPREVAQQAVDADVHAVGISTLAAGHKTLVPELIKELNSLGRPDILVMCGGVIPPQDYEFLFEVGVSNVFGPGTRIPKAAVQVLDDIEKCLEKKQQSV
UniProt Q9Y6X9: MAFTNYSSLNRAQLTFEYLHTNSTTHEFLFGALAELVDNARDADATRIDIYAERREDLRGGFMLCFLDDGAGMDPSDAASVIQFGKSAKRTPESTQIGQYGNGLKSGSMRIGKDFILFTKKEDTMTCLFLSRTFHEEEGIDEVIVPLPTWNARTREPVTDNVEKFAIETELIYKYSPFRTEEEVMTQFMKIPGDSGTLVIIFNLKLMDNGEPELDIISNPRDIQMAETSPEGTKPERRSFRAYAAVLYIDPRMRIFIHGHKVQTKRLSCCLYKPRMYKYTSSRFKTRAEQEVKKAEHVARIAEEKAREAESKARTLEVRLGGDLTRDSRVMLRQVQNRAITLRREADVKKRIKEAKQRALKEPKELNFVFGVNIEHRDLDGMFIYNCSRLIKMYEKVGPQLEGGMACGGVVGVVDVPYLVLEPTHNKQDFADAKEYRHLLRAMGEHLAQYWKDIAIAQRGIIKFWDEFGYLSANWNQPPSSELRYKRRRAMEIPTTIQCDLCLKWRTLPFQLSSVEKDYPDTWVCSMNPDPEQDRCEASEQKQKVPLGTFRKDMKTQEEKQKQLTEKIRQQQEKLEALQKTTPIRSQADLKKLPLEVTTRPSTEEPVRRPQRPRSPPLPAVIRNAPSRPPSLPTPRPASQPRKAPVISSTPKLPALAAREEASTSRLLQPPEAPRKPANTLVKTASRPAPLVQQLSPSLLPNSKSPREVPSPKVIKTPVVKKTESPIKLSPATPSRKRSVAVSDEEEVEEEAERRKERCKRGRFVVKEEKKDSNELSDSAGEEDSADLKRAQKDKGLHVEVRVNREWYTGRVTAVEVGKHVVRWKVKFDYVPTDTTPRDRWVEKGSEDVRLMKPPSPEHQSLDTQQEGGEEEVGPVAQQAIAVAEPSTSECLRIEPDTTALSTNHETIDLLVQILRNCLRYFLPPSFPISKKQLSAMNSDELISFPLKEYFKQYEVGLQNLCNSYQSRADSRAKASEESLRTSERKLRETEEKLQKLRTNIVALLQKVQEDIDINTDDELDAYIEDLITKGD
UniProt Q96EY8: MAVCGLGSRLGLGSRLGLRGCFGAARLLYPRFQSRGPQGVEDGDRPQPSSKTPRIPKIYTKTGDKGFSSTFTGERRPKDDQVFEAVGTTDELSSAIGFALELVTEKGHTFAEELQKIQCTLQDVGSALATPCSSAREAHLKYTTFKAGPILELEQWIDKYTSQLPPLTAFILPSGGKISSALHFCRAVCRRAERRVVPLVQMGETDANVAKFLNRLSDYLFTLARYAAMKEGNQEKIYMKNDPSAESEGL
UniProt Q9HC36: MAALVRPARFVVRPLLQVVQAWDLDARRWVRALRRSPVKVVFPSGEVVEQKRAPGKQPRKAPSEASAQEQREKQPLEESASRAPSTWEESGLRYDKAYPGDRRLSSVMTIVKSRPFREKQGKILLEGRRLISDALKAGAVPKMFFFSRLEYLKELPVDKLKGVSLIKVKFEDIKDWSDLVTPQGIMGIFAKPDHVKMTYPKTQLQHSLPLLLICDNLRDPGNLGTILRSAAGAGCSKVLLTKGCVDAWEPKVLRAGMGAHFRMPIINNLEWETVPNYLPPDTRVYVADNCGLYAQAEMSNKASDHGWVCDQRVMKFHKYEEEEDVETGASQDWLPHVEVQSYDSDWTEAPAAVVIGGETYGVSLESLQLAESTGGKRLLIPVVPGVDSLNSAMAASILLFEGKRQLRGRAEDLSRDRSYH
UniProt Q15014, whole entry, looked up: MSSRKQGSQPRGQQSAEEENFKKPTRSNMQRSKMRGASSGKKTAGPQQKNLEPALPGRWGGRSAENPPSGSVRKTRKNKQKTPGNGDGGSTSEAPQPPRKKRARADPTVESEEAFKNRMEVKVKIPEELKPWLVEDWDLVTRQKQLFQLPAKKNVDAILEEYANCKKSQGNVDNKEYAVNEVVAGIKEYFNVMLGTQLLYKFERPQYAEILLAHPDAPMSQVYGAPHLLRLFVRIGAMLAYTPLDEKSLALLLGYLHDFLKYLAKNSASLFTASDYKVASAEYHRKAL
UniProt O14880: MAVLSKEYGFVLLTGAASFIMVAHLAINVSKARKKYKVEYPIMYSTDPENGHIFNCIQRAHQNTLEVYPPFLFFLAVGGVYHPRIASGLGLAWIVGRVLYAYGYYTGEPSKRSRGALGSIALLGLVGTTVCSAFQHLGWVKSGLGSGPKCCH
UniProt Q9UNW1: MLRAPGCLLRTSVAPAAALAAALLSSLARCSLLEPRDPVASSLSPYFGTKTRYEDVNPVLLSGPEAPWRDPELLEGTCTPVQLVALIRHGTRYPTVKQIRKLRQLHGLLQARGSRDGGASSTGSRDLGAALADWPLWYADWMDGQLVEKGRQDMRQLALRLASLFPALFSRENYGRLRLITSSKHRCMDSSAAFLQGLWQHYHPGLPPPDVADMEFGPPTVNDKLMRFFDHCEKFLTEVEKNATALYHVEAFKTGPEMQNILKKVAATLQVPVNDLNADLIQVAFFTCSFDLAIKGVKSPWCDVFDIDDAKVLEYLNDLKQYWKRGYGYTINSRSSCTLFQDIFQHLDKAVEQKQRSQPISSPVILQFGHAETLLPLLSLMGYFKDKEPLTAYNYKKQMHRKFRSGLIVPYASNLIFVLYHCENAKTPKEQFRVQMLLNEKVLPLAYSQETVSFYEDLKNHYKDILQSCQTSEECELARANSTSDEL
UniProt Q9HCE1: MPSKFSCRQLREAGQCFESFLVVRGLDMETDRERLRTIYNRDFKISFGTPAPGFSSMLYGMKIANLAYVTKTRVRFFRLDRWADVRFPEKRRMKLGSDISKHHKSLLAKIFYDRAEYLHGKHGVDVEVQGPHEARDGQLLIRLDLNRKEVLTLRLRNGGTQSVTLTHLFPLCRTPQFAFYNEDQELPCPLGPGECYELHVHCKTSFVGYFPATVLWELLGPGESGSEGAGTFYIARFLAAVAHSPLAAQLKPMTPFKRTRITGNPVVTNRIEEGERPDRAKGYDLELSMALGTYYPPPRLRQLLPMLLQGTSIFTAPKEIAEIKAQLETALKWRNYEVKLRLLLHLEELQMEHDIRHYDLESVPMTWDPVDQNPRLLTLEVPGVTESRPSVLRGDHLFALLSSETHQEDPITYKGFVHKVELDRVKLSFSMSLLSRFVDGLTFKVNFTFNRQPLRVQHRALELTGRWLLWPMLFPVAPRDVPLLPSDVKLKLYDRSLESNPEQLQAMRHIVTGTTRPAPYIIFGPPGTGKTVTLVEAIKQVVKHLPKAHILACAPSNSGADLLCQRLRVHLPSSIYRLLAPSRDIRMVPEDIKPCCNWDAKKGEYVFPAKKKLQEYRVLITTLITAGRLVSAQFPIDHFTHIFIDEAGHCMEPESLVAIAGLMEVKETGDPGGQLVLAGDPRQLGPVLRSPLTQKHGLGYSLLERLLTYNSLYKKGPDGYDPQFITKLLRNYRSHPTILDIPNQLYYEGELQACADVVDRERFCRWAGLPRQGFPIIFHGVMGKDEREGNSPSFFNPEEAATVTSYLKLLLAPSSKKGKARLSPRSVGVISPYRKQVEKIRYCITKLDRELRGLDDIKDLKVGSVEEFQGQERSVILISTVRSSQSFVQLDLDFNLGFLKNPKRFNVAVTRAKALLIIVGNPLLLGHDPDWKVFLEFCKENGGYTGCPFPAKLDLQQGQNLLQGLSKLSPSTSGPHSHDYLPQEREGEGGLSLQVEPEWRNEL
UniProt P10620: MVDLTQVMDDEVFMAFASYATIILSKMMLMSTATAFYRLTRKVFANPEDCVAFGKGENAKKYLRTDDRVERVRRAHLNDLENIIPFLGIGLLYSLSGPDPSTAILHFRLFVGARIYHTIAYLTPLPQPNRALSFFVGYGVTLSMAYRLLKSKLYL
UniProt Q9NV56, whole entry, looked up: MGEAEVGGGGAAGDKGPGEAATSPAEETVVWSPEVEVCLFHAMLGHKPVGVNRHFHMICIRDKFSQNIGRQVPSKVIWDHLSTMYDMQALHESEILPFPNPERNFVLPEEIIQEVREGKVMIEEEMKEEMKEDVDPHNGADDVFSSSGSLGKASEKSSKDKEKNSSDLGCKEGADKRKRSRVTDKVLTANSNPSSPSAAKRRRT
UniProt Q5TGZ0: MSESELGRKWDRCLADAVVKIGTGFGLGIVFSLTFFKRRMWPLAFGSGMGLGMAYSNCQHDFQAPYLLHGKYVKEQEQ

The other results are listed elsewhere or left out.

Compound in one assay: CC1=C(C=C(C=C1)NC(=O)C2=CC(=CC=C2)C(C)(C)C#N)NC3=CC4=C(C=C3)N=CN(C4=O)C
In words: log2 fold change, soluble protein after heating vs DMSO (PISA); higher = thermal stabilisation; K562 lysate, 10 uM; active = over 0.2 and 3.5 SD of the protein, either way, in both replicates (recomputed). The gist of the method: (§1)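 The values are log-two fold changes in thermal stability compared with solvent controls and come from duplicates. They were obtained by TMTpro 16plex LC-MS/MS, with channel sums equalised, on the supernatant after 21,000xg for 90 min. That supernatant came from crude K562 extract at 1 mg/mL protein treated with 10 μM compound for 30 min, heated for 3 min across 48°C-58°C, pooled and brought to 0.5% NP-40 at 4°C.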
On to MORF4L1 isoform 2 (UniProt Q9UBU8), for which the log2 fold change is inactive: 0.01.

Take MPC2 (UniProt O95563): the log2 fold change was inactive: 0.013.

On to MIOS (UniProt Q9NXC5), for which the log2 fold change was inactive: 0.022.

Consider MKRN2 (UniProt Q9H000), for which the log2 fold change is inactive: 0.022.

Take MMUT (UniProt P22033): the log2 fold change is inactive: -0.025.

Regarding MORC2 (UniProt Q9Y6X9), the log2 fold change was inactive: -0.037.

As for MMAB (UniProt Q96EY8), the log2 fold change was inactive: -0.042.

For the target MRPL19 (UniProt P49406), the log2 fold change is inactive: -0.013.

For MRM3 (UniProt Q9HC36), the log2 fold change is inactive: -0.016.

As to MORF4L2 (UniProt Q15014), the log2 fold change is inactive: -0.031.

For the target MLXIP (UniProt Q9HAP2), the log2 fold change is inactive: -0.015.

As for MGST3 (UniProt O14880), the log2 fold change is inactive: 0.042.

With MINPP1 (UniProt Q9UNW1), the log2 fold change was inactive: -0.047.

For the target MOV10 (UniProt Q9HCE1), the log2 fold change is inactive: -0.016.

Compound in a further assay: CC1=C(C=C(C=C1)NC(=O)C2=CC(=CC=C2)N(C)C)NC(=O)C3=CC=C(C=C3)O
Described as above. The gist of the method: as §1
For MGST1 (UniProt P10620), the log2 fold change is inactive: 0.014.

Regarding MRI1 (UniProt Q9BV20), the log2 fold change was inactive: 0.

Consider MOB4 (UniProt Q9Y3A3), for which the log2 fold change is inactive: -0.051.

For the target MKNK1 (UniProt Q9BUB5), the log2 fold change is inactive: -0.014.

Regarding MIF4GD isoform 3 (UniProt A9UHW6), the log2 fold change is inactive: -0.04.

On to MRPL1 (UniProt Q9BYD6), for which the log2 fold change was inactive: 0.031.

For MLX (UniProt Q9UH92), the log2 fold change was inactive: -0.062.

For the target MPI (UniProt P34949), the log2 fold change is inactive: -0.012.

For the target MRGBP (UniProt Q9NV56), the log2 fold change was inactive: 0.007.

With MMTAG2 (UniProt Q9BU76), the log2 fold change is inactive: 0.038.

For the target MPZL1 (UniProt O95297), the log2 fold change is inactive: -0.035.

On to MRPL23 (UniProt Q16540), for which the log2 fold change was inactive: -0.055.

Consider MPST isoform 2 (UniProt P25325), for which the log2 fold change was inactive: 0.

Consider MRPL15 (UniProt Q9P015), for which the log2 fold change was inactive: 0.009.

With MICOS10 (UniProt Q5TGZ0), the log2 fold change is inactive: -0.036.

Consider MIA2 (UniProt Q96PC5), for which the log2 fold change is inactive: 0.003.

In the case of MKI67 (UniProt P46013), the log2 fold change was inactive: 0.04.

Consider MKRN1 (UniProt Q9UHC7), for which the log2 fold change is inactive: -0.012.

MRPL14 (UniProt Q6P1L8): the log2 fold change was inactive: -0.004.

In the case of MICALL1 (UniProt Q8N3F8), the log2 fold change is inactive: 0.038.

Regarding MICALL2 (UniProt Q8IY33), the log2 fold change is inactive: 0.005.

With MINDY3 (UniProt Q9H8M7), the log2 fold change was inactive: 0.006.

Regarding MPP1 (UniProt Q00013), the log2 fold change is inactive: 0.012.

For MON2 isoform 5 (UniProt Q7Z3U7), the log2 fold change was inactive: 0.025.

MORF4L1 isoform 2 (UniProt Q9UBU8): the log2 fold change was inactive: 0.003.

For the target MPC2 (UniProt O95563), the log2 fold change was inactive: -0.026.

As for MIOS (UniProt Q9NXC5), the log2 fold change was inactive: 0.009.

In the case of MKRN2 (UniProt Q9H000), the log2 fold change was inactive: -0.021.

As to MMUT (UniProt P22033), the log2 fold change was inactive: -0.003.

With MORC2 (UniProt Q9Y6X9), the log2 fold change was inactive: 0.072.

Regarding MMAB (UniProt Q96EY8), the log2 fold change is inactive: 0.031.

As for MRPL19 (UniProt P49406), the log2 fold change is inactive: 0.023.

As to MRM3 (UniProt Q9HC36), the log2 fold change is inactive: 0.

With MORF4L2 (UniProt Q15014), the log2 fold change is inactive: 0.031.

Regarding MLXIP (UniProt Q9HAP2), the log2 fold change was inactive: -0.011.

For MGST3 (UniProt O14880), the log2 fold change was inactive: 0.006.

Turning to MINPP1 (UniProt Q9UNW1), the log2 fold change is inactive: -0.013.

For the target MOV10 (UniProt Q9HCE1), the log2 fold change is inactive: -0.012.

Compound in a further assay: CC1=CC=C(C=C1)SC2=C3C=C(SC3=CN=C2)C(=O)N
The assay is described as above. The gist of the method: as §1
For MGST1 (UniProt P10620), the log2 fold change was inactive: 0.05.

With MRI1 (UniProt Q9BV20), the log2 fold change was inactive: -0.039.

As to MOB4 (UniProt Q9Y3A3), the log2 fold change was inactive: -0.033.

In the case of MKNK1 (UniProt Q9BUB5), the log2 fold change is inactive: -0.017.

Consider MIF4GD isoform 3 (UniProt A9UHW6), for which the log2 fold change was inactive: -0.004.

On to MRPL1 (UniProt Q9BYD6), for which the log2 fold change is inactive: -0.005.

For the target MLX (UniProt Q9UH92), the log2 fold change is inactive: 0.017.

Consider MPI (UniProt P34949), for which the log2 fold change is inactive: -0.013.

Consider MRGBP (UniProt Q9NV56), for which the log2 fold change was inactive: -0.056.

As for MMTAG2 (UniProt Q9BU76), the log2 fold change was inactive: 0.042.

MPZL1 (UniProt O95297): the log2 fold change is inactive: -0.036.

Regarding MRPL23 (UniProt Q16540), the log2 fold change is inactive: 0.003.

In the case of MPST isoform 2 (UniProt P25325), the log2 fold change was inactive: 0.029.

With MRPL15 (UniProt Q9P015), the log2 fold change was inactive: -0.023.

For the target MICOS10 (UniProt Q5TGZ0), the log2 fold change is inactive: 0.051.

In the case of MIA2 (UniProt Q96PC5), the log2 fold change is inactive: 0.017.

Regarding MKI67 (UniProt P46013), the log2 fold change was inactive: -0.012.

For MKRN1 (UniProt Q9UHC7), the log2 fold change was inactive: 0.034.

In the case of MRPL14 (UniProt Q6P1L8), the log2 fold change is inactive: 0.043.

As to MICALL1 (UniProt Q8N3F8), the log2 fold change was inactive: -0.01.

Turning to MICALL2 (UniProt Q8IY33), the log2 fold change was inactive: -0.008.

MINDY3 (UniProt Q9H8M7): the log2 fold change is inactive: 0.011.

For MPP1 (UniProt Q00013), the log2 fold change is inactive: -0.004.

As for MON2 isoform 5 (UniProt Q7Z3U7), the log2 fold change was inactive: 0.

For the target MORF4L1 isoform 2 (UniProt Q9UBU8), the log2 fold change is inactive: 0.021.

Turning to MPC2 (UniProt O95563), the log2 fold change is inactive: -0.005.

On to MIOS (UniProt Q9NXC5), for which the log2 fold change was inactive: -0.022.

On to MKRN2 (UniProt Q9H000), for which the log2 fold change is inactive: 0.027.

For the target MMUT (UniProt P22033), the log2 fold change was inactive: 0.014.

Regarding MORC2 (UniProt Q9Y6X9), the log2 fold change is inactive: 0.004.

On to MMAB (UniProt Q96EY8), for which the log2 fold change was inactive: -0.007.

As for MRPL19 (UniProt P49406), the log2 fold change was inactive: -0.002.

Consider MRM3 (UniProt Q9HC36), for which the log2 fold change is inactive: -0.015.

With MORF4L2 (UniProt Q15014), the log2 fold change was inactive: -0.003.

As for MLXIP (UniProt Q9HAP2), the log2 fold change was inactive: -0.015.

As to MGST3 (UniProt O14880), the log2 fold change is inactive: -0.025.

Turning to MINPP1 (UniProt Q9UNW1), the log2 fold change is inactive: 0.005.

Turning to MOV10 (UniProt Q9HCE1), the log2 fold change was inactive: 0.007.
